Results: paper PMC5015029
These are yes or no findings as the source states them, for the method shown. For some of these results: Binding seen in cells or lysates may run through a third protein. Some binding calls cover weakened binding; strength is not graded here. For some of these results: Tags and fused reporters may be left off the sequences shown.

Sequences of proteins named here, by UniProt entry; tags and fusion partners are left off. A change or cut given only in a name is not applied to a line headed by its entry. A line that says so, or that is headed by a name, gives the form on record, which may keep a tag or linker. Residues count along the entry.
Anaplastic lymphoma kinase, wild type (WT ALK), expressed in Cos7 cells (Q9UM73, residues 19-1620): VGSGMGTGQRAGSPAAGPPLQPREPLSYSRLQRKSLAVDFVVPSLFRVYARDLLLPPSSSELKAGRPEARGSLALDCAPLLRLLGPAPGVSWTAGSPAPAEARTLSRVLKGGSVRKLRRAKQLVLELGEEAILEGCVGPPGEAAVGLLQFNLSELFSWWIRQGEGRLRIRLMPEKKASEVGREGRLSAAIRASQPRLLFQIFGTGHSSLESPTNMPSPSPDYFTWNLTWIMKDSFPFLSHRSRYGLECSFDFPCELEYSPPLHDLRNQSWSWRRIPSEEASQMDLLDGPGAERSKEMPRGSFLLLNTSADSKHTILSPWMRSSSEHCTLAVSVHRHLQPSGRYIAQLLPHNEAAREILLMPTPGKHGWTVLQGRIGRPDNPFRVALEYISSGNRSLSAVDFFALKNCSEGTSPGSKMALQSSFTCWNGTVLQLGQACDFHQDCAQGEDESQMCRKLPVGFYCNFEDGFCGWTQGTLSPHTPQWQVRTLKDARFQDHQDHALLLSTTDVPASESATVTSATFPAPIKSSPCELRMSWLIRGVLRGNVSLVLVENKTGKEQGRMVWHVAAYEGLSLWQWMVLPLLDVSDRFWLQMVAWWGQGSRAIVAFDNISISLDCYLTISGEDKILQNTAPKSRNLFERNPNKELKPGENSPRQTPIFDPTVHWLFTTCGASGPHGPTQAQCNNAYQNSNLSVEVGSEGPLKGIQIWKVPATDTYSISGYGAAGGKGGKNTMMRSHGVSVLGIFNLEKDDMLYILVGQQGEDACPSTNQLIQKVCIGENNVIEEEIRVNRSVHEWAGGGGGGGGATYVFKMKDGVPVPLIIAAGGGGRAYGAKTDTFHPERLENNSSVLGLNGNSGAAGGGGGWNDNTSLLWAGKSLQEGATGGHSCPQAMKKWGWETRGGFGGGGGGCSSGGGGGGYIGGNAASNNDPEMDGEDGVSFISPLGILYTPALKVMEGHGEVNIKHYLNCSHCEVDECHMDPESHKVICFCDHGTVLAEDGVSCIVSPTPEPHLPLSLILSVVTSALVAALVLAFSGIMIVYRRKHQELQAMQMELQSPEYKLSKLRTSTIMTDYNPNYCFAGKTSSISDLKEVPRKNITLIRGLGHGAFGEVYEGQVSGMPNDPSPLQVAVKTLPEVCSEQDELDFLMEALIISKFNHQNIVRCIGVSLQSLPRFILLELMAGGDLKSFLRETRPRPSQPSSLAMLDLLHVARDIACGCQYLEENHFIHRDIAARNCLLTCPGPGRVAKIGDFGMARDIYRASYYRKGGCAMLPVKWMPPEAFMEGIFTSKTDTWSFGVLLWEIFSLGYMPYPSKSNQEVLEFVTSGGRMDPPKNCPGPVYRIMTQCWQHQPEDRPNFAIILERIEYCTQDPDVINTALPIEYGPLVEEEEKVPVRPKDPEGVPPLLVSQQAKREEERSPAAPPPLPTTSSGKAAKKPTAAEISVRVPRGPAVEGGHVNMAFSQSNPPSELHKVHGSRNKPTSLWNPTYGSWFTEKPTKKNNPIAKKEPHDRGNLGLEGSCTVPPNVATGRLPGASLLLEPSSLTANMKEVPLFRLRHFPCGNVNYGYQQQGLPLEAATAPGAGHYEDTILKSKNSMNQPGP
Anaplastic lymphoma kinase R1275Q, expressed in HEK293 cells (Q9UM73, form named): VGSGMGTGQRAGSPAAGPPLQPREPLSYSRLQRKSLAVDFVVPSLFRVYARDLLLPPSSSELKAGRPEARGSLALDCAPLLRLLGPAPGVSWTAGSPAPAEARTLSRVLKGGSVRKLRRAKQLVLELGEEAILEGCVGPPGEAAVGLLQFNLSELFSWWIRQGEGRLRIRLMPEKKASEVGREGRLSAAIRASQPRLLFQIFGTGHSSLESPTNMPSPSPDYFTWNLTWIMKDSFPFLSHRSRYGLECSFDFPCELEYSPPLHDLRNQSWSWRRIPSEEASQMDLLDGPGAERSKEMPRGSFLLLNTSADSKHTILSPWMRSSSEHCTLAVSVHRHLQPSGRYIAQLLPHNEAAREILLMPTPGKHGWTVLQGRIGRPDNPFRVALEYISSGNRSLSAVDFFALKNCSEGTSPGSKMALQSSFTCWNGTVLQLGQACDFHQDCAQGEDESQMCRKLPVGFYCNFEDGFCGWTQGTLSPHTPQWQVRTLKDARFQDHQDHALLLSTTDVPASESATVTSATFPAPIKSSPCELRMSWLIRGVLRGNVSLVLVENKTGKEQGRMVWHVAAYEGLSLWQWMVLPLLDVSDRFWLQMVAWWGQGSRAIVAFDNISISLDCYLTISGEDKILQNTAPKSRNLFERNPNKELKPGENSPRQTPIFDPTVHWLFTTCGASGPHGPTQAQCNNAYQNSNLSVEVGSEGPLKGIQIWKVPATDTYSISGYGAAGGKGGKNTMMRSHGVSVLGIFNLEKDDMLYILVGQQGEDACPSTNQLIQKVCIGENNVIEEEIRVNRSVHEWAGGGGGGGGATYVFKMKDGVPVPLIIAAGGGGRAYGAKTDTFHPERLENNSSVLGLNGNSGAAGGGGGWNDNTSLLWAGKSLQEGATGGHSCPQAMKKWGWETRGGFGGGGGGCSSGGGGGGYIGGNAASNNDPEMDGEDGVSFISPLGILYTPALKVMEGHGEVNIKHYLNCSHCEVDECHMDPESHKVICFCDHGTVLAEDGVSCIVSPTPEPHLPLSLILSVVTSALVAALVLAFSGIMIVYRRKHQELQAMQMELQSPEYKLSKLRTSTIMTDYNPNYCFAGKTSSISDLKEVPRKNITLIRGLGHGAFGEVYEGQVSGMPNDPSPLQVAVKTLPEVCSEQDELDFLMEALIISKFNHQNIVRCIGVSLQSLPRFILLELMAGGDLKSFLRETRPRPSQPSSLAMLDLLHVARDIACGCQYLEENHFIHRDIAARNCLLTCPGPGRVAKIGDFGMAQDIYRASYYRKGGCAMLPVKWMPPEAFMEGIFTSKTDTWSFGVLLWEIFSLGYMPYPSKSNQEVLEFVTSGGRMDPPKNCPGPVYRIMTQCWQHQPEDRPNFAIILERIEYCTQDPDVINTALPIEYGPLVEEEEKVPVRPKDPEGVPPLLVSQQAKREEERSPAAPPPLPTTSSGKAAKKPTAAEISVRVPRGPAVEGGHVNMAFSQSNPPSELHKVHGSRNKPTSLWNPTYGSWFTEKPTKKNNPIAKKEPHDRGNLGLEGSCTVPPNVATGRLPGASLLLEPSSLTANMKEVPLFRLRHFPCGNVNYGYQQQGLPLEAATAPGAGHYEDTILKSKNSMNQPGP
Anaplastic lymphoma kinase (ALK) F1174L, endogenous in SMS-SAN cells (Q9UM73, form named): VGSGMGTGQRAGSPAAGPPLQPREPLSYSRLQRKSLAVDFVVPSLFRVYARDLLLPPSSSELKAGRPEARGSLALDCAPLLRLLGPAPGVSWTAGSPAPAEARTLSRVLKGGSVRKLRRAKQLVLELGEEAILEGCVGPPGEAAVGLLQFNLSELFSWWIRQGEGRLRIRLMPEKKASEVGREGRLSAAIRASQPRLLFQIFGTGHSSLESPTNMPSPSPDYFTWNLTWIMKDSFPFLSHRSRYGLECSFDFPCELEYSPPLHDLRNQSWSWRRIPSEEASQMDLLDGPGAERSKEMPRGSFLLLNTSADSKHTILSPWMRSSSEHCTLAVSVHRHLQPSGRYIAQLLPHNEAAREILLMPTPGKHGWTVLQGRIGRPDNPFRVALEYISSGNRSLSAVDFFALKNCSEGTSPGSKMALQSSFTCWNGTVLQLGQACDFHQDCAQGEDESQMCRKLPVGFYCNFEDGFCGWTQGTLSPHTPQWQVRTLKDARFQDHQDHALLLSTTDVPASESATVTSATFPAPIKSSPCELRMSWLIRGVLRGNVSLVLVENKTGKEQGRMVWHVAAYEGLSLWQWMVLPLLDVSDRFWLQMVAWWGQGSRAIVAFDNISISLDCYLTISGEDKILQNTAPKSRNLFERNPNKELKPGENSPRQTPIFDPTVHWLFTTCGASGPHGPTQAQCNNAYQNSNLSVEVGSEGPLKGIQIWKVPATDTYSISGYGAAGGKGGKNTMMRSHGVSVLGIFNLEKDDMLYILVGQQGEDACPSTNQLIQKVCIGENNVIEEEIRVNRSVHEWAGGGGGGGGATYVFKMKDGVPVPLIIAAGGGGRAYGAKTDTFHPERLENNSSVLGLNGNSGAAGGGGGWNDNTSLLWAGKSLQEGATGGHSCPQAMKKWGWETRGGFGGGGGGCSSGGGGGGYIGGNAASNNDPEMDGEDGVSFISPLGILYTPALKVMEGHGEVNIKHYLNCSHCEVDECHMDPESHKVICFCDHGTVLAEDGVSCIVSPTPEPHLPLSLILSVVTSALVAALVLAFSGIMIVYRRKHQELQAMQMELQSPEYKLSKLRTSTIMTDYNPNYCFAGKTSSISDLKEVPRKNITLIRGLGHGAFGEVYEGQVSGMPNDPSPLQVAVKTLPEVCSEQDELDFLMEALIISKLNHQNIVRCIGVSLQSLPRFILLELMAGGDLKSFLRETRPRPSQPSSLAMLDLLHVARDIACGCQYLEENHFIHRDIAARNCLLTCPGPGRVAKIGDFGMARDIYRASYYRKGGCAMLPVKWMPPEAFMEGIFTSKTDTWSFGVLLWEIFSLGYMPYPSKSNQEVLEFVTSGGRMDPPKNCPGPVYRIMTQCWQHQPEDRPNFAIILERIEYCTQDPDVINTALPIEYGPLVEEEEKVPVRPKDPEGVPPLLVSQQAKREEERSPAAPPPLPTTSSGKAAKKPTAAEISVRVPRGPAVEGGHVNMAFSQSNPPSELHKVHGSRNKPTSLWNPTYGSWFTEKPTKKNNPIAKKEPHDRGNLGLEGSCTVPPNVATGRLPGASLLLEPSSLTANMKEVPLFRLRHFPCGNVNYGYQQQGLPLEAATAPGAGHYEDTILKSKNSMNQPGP

Columns and labels:
[1] = biological target: Neuronal leucine-rich repeat 1 (NLRR1), endogenous in CHP134 and SMS-SAN cells (human (endogenous in CHP134 and SMS-SAN)) (UniProt Q6UXK5); assay: co-IP; endogenous proteins in CHP134 and SMS-SAN cells; CHAPS lysis, IP buffer, 4 °C, protein A agarose; normal rabbit IgG as negative control; western blotting
[2] = biological target: Neuronal leucine-rich repeat 1 tagged with HA (NLRR1-HA), expressed in Cos7 cells (human) (UniProt Q6UXK5); assay: co-IP; Cos7 cells transfected with either NLRR1-HA or ALK, co-cultured at the same density for 24 hours; immunoprecipitation with a 3,3'-dithiobis(sulfosuccinimidyl propionate) cross-linking reaction
[3] = biological target: Neuronal leucine-rich repeat 1 tagged with HA (NLRR1-HA), expressed in HEK293 cells (human) (UniProt Q6UXK5); assay: co-IP; HEK293 cells transiently co-expressing NLRR1-HA and ALK (WT, F1174L or R1275Q); CHAPS lysis, IP buffer with 150 mM NaCl and 1% Nonidet P-40, 4 °C, protein A agarose; western blotting; also after 5 μg/ml tunicamycin for 8 hours
[4] = biological target: T1, ΔL-Ig-Fc, NLRR1 FNIII domain alone conjugated with human IgG1 Fc (human) (UniProt Q6UXK5); assay: pull-down; NB-39-nu cells incubated 1 hour at 37 °C in conditioned medium with Fc chimeras from HEK293 cells; washed, lysed in CHAPS buffer, 1 mg reacted with protein A agarose in IP buffer overnight at 4 °C; western blotting
T1 sequence: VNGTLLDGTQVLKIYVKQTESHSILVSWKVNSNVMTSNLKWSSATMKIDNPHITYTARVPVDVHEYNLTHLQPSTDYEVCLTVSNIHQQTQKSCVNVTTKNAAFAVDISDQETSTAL

[5] = biological target: T2, ΔLRR-Fc, NLRR1 ectodomain without the LRR domain (Ig-like and FNIII domains) conjugated with human IgG1 Fc (human) (UniProt Q6UXK5); assay: as above
T2 sequence: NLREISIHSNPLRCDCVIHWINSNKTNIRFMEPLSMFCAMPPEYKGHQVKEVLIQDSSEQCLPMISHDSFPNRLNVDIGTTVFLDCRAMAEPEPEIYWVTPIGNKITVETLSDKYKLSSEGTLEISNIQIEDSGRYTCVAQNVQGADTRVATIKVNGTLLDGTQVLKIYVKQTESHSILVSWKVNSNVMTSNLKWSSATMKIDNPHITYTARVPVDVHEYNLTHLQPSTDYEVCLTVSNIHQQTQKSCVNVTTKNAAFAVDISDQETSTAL

[6] = biological target: Intact extracellular domain of NLRR1 conjugated with human IgG1 Fc (exN1-Fc) (human) (UniProt Q6UXK5); assay: as above
[7] = biological target: Anaplastic lymphoma kinase, wild type (WT ALK), expressed in Cos7 cells (human) (UniProt Q9UM73); assay: alkaline phosphatase fusion binding to cells; transfected Cos7 cells incubated 1 hour at room temperature in ultrafiltrated medium from HEK293 cells transfected with exN1-AP; after washing and lysis AP activity in the lysates, standardised to the control

## Anaplastic lymphoma kinase (ALK), endogenous in CHP134 cells (from UniProt Q9UM73 19-1620) (receptor)
[1]
  binding: binds

## Anaplastic lymphoma kinase, wild type (WT ALK), expressed in Cos7 cells (from UniProt Q9UM73 19-1620) (receptor)
[2]
  binding: binds

## Anaplastic lymphoma kinase, wild type (WT ALK), expressed in HEK293 cells (from UniProt Q9UM73 19-1620) (receptor)
[3]
  binding: binds

## Anaplastic lymphoma kinase (ALK), endogenous in NB-39-nu cells (from UniProt Q9UM73 19-1620) (receptor)
[4]
  binding: binds
[5]
  binding: binds
[6]
  binding: binds

## Anaplastic lymphoma kinase R1275Q, expressed in HEK293 cells (from UniProt Q9UM73 19-1620) (receptor)
[3]
  binding: binds

## Anaplastic lymphoma kinase F1174L, expressed in HEK293 cells (from UniProt Q9UM73 19-1620) (receptor)
[3]
  binding: binds

## Intact extracellular domain of NLRR1 fused with human placental alkaline phosphatase (exN1-AP) (from UniProt Q6UXK5 26-632) (domain or fragment)
[7]
  binding: binds

## Anaplastic lymphoma kinase (ALK) F1174L, endogenous in SMS-SAN cells (from UniProt Q9UM73 19-1620) (receptor)
[1]
  binding: binds
